Some of the results follow. The main result of the screen is listed elsewhere. These columns were measured beside it and carry no call. Compounds called inactive in the main read-out are mostly missing here. The note in brackets gives the kind of curve behind each potency; many fits are weak.
Experiment: qHTS Assay for Lipid Storage Modulators in Drosophila S3 Cells;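 as to cell number change: cells counted by Cell Tracker Red CMTPX staining in the red channel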
Details: BODIPY lipid droplet fluorescence, 18-24 h; for cell number change: measured here: cell count max response, cells fed with added oleic acid
How it was run: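 Laser-scanning cytometry quantifies lipid droplet accumulation (500–530 nm total intensity; droplet/cell object ratio) in oleic acid-fed (400 uM added) Drosophila S3 cells treated with a concentration series. 20 uM Triacsin C defined 100% inhibition.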

[1] = measured here: cell number channel AC50, cells fed with added oleic acid
[2] = measured here: lipid fluorescence (Fed channel) AC50, cells fed with added oleic acid

SMILES	cell number change	AC50 [1]	AC50 [2]
COC(=O)c1cc2c(cc1Cl)N1CCCCCC1=NS2(=O)=O	-24.5%	2.59 µM [falling, single point]	–
O=[N+]([O-])c1ccc(S(=O)(=O)N(CC(O)CN2CCCCC2)c2ccccc2)cc1 (stereo not given)	20.5%	–	0.164 µM [rising, full curve]
Cn1ccnc1C(=O)c1ccc(NN)c([N+](=O)[O-])c1	44.5%	18.4 µM [rising, single point]	–
CCc1cccc2c(C(=O)COC(=O)c3nccnc3N)c[nH]c12	-3.58%	–	–
Fc1cccc(CNc2ncnc3ccc(-c4ccoc4)cc23)c1	26.3%	–	–
CCOC(=O)C1CCC(CN(Cc2ccccc2)S(=O)(=O)c2ccc([N+](=O)[O-])cc2)CC1 (stereo not given)	16.4%	1.84 µM [rising, full curve, poor fit]	–
CCSc1nc(C)cc(C)c1S(=O)(=O)c1ccccc1C	-50.9%	0.164 µM [falling, full curve]	8.2 µM [falling, partial curve, poor fit]
CCN1C(=O)[C@H]2[C@@H](c3ccc(C)cc3)N3C(=O)N(c4cccc(Cl)c4)C(=O)[C@@]3(Cc3ccc(Cl)cc3)[C@H]2C1=O	–	–	14.6 µM [rising, partial curve]
COC(=O)c1sccc1NC(=O)c1cccc(OC)c1	–	3.26 µM [rising, partial curve]	3.66 µM [rising, partial curve]
Cc1cc(=O)n2ncnc2n1COCCO	-14.4%	–	20.6 µM [falling, partial curve, poor fit]
CN(C)/C=C/c1[nH]c(=O)[nH]c(=O)c1[N+](=O)[O-]	20.9%	–	18.4 µM [rising, single point]
O=C(COc1ccc2ccccc2c1)NCCc1ccc2c(c1)OCCO2	47.4%	2.31 µM [rising, partial curve]	9.2 µM [rising, partial curve, poor fit]
O=C(O)c1ccc(Cl)c(S(=O)(=O)N2CCCCCC2)c1	14.4%	2.31 µM [falling, partial curve]	20.6 µM [falling, single point]
Cc1ccc(NC(=O)c2ccc(OCc3c(C)noc3C)cc2)c(C)c1	25.7%	–	10.3 µM [falling, partial curve]
O=C(COC(=O)c1ccc2c(c1)OCO2)Nc1cccc(F)c1	4.69%	–	13 µM [rising, partial curve]
Cc1ccc(-c2nn(-c3cc(N4CCNCC4)ccc3[N+](=O)[O-])c(=O)c3ccccc23)cc1	-30.7%	2.31 µM [falling, single point]	–
Cc1cc(C)cc(NC(=O)COC(=O)CCn2c(C)csc2=O)c1	2.13%	–	6.51 µM [rising, single point]
CC1CCN(c2ccc3c(c2)S(=O)(=O)c2cccc(C(=O)NCc4ccc(F)cc4)c2C3=O)CC1	-34.7%	6.51 µM [falling, partial curve, poor fit]	2.31 µM [falling, partial curve]
CCCCN(CCO)c1ncnc2sc(-c3ccccc3)cc12	14.3%	–	0.82 µM [rising, full curve, poor fit]
Cc1ccc(S(=O)(=O)NNC(=O)c2sc(NS(=O)(=O)c3ccccc3)nc2C)cc1	12.8%	–	–

SMILES	cell number change	AC50 [1]	AC50 [2]
COCCCNC(=O)Cn1c(=O)n(CC(=O)N2CCCCC2)c(=O)c2sccc21	–	–	29.1 µM [falling, single point]
Cn1c(N)c(C(=O)COC(=O)c2cc(-c3ccccc3)nc3ccccc23)c(=O)n(Cc2ccccc2)c1=O	-0.83%	–	1.84 µM [rising, full curve]
CCOc1ccc(N(CC(=O)NCCSCc2ccc(C)cc2)S(C)(=O)=O)cc1	-23.1%	–	6.51 µM [falling, single point]
Cn1ncc(C#N)c1/N=C/N1CCCC1	-61.9%	3.66 µM [falling, full curve]	3.66 µM [falling, full curve]
COc1ccc(CCN=C(N)NS(=O)(=O)c2cccs2)cc1	50%	–	23.1 µM [rising, single point]
CCCn1c(-c2ccccc2)cc(SC)c(C#N)c1=O	38.7%	11.6 µM [rising, single point]	6.51 µM [rising, single point]
Cn1cnc2cc(NS(=O)(=O)c3ccc(Br)cc3)ccc21	18.5%	0.517 µM [rising, full curve, poor fit]	16.4 µM [rising, partial curve]
Cc1ccc(OCC(=O)Nc2ccc(N3CCOCC3)cc2)c([N+](=O)[O-])n1	18.3%	–	3.26 µM [falling, single point]
O=C(Nc1cccc(Cl)c1)C1CCCN(S(=O)(=O)c2ccc(F)cc2)C1 (stereo not given)	23.9%	0.731 µM [falling, single point]	–
COc1ccc(NC(=O)CN2CCN(CC(=O)Nc3ccccc3F)CC2)c(OC)c1	–	6.51 µM [rising, single point]	–
O=C(NCc1cccnc1)NC(=O)c1ccc(Cl)cc1	–	–	1.12 µM [rising, full curve, poor fit]
FC(F)(F)c1cnc(C(c2ccccn2)c2ncn[nH]2)c(Cl)c1 (stereo not given)	13.6%	0.00461 µM [rising, full curve, poor fit]	–
O=C(C#Cc1ccccc1)Nc1cccc(F)c1	–	–	0.82 µM [falling, full curve]
O=C(Cn1cncn1)N/N=C/c1cc([N+](=O)[O-])ccc1O	-1.58%	–	0.164 µM [falling, full curve, poor fit]
CS(=O)(=O)N1CCN(C(=O)CSc2ccccc2)CC1	-4.11%	–	–
CC(C)CNS(=O)(=O)c1ccc(CCC(=O)Nc2cc(Cl)ccc2Oc2ccccc2)cc1	16.9%	–	–
COc1ccc(NC(=O)c2ccc3c(=O)n4c(nc3c2)CCCCC4)cc1	-95.4%	29.1 µM [falling, single point]	29.1 µM [falling, single point]
CCOc1ccc(C(C)=O)cc1CN1C(=O)C(=O)N(CC)C1=O	41.2%	29.1 µM [rising, single point]	–
O=C(NCc1ccc2c(c1)OCO2)c1c(O)nc2sccn2c1=O	155%	4.61 µM [falling, single point]	4.61 µM [falling, single point]
COC(=O)c1ccccc1N1C(=O)C2C(C1=O)[C@H]1C=C[C@@H]2C1 (stereo not given in full)	7.67%	–	29.1 µM [rising, single point]

One compound at a time, from the list above. Order of values: cell number change | AC50 [1] | AC50 [2]
O=C(Nc1cccc(Cl)c1)C1CCCN(S(=O)(=O)c2ccc(F)cc2)C1 (stereo not given) reads 23.9% | 0.731 µM [falling, single point] | –
Cn1c(N)c(C(=O)COC(=O)c2cc(-c3ccccc3)nc3ccccc23)c(=O)n(Cc2ccccc2)c1=O reads -0.83% | – | 1.84 µM [rising, full curve]
Cc1ccc(OCC(=O)Nc2ccc(N3CCOCC3)cc2)c([N+](=O)[O-])n1 reads 18.3% | – | 3.26 µM [falling, single point]

The results go on.

SMILES	cell number change	AC50 [1]	AC50 [2]
COc1cc(CNn2nnnc2N)ccc1OCc1c(Cl)cccc1Cl	-53.1%	29.1 µM [falling, single point]	29.1 µM [rising, single point]
Cc1cccc(C)c1NC(=O)CN1CCN(CCCC(c2ccc(F)cc2)c2ccc(F)cc2)CC1	-55.7%	29.1 µM [falling, single point]	4.61 µM [falling, single point]
O=C(NNC(=O)C1CC1)c1ccccc1[N+](=O)[O-]	-0.283%	–	–
COc1ccccc1NC(=O)Nc1sccc1-c1nc2ccccc2s1	-6.58%	–	29.1 µM [falling, single point]
CCc1ccc(CN(C)CC(=O)Nc2ccc3c(c2)CCC3)cc1	-46.5%	0.58 µM [falling, full curve]	0.82 µM [falling, full curve]
COc1cccc(-c2nc3c(c(SCC(=O)N4CCOCC4)n2)Cc2c(CO)cnc(C)c2O3)c1	–	–	0.58 µM [falling, full curve]
COC(=O)C1CCN(C(=O)C2CCC(=O)N(CCCc3ccccc3)C2)CC1 (stereo not given)	17.2%	–	16.4 µM [falling, single point]
C=CCC(CC(O)COCCC)C(=O)NNC(=S)Nc1ccccc1 (stereo not given)	7.25%	–	2.06 µM [rising, partial curve]
CCOC(=O)C1=C(C)OC(N)=C(C#N)C1c1cc2c(cc1Br)OCO2 (stereo not given)	-4.13%	–	2.06 µM [rising, full curve]
CCOC(=O)CSc1nnc(NC(=O)c2cc([N+](=O)[O-])cc([N+](=O)[O-])c2)s1	-33.3%	32.6 µM [falling, single point]	–
CC1C/C(=N\NC(N)=S)c2cc(Cl)ccc2S1 (stereo not given)	9.56%	–	–
CN1CCc2c(sc(/N=C/c3ccco3)c2C(N)=O)C1	-2.03%	–	–
O=C(c1ccc(Sc2ccc(F)cc2)c([N+](=O)[O-])c1)N1CCOCC1	29.4%	–	–
CCc1nnc(NS(=O)(=O)c2ccc(NCc3cc(Cl)ccc3O)cc2)s1	3.85%	–	0.13 µM [rising, full curve]
O=C1c2ccccc2C(=O)c2c1cccc2N(CCO)CCO	1.94%	–	29.1 µM [falling, single point]
COc1ccc(CCNC(=O)COc2coc(CN3c4ccccc4CC3C)cc2=O)cc1OC (stereo not given)	-20.1%	–	29.1 µM [falling, single point]
COc1ccc(CNC(=O)N2CCN(c3ccc(F)cc3)CC2)cc1Cl	-45.4%	0.103 µM [falling, full curve, poor fit]	23.1 µM [falling, single point]
CC(=O)Oc1cccc(C(=O)Nc2ccc(NC(=O)c3cccs3)cc2)c1	-9.7%	–	6.51 µM [falling, full curve, poor fit]
COCCN(CCOC)S(=O)(=O)c1ccc(/C(O)=C(\C#N)c2nc3ccccc3[nH]2)cc1	24.6%	–	–

Reference: PubChem BioAssay AID2685 (National Center for Advancing Translational Sciences (NCATS), 2010)
